At least one compound was matched to its structure with a doubt left.
Assay: Compatibility investigation of binary mixtures with vitamin B12 by DSC
Type: physicochemical
Parameters: key to Compatibility: ++ good compatibility expected below the stated temperature; + compatibility below the stated temperature; ++/− indifferent compatibility, possibly good compatibility below the stated temperature; +/−− indifferent compatibility, appears to be compatible below the stated temperature; −(−−−) (strong) interaction, incompatible; −(−−−) (strong) interaction, incompatible
Description: Both vitamin B12 and 5-methyl-(6S)-tetrahydrofolate are unstable in the presence of atmospheric oxygen and humidity. […] Measurements of the incompatibilities between the intended formulation ingredients were carried out by a thermoanalytical method (DSC, differential scanning calorimetry). This allows incompatibilities to be recognized through low enthalpies of fusion and melting temperatures. These are caused for example by a reduced proportion of crystalline substance and the increase in impurities. In the determination, binary mixtures of excipients or active ingredients in each case with vitamin B12 were investigated, and the compatibility was examined under the influence of various gases and temperatures. […]

## C#C[C@]1(O)CC[C@H]2[C@@H]3CCc4cc(O)ccc4[C@H]3CC[C@@]21C [Ethinylestradiol]
Binary mixture with vitamin B12, DSC, various gases and temperatures, stated temperature is 60° C. where given
  Compatibility: −−−
Binary mixture with vitamin B12, cells wrap, all except Drospirenone and Ethinylestradiol ('very O2-sensitive') continue 'moisture-sensitive'
  Comments: very O2-

From patent publication US20060293295A1, “Pharmaceutical composition comprising progestogens and/or estrogens and 5-methyl- (6S)-tetrahydrofolate” (priority 2005, published 2006)
